In the supplement of paper PMC10849652:
The list shows a part of the results.

Amino acid sequences for entries named in this document (tags omitted). A change or cut given only in a name is not applied to a line headed by its entry.
UniProt Q96NS5: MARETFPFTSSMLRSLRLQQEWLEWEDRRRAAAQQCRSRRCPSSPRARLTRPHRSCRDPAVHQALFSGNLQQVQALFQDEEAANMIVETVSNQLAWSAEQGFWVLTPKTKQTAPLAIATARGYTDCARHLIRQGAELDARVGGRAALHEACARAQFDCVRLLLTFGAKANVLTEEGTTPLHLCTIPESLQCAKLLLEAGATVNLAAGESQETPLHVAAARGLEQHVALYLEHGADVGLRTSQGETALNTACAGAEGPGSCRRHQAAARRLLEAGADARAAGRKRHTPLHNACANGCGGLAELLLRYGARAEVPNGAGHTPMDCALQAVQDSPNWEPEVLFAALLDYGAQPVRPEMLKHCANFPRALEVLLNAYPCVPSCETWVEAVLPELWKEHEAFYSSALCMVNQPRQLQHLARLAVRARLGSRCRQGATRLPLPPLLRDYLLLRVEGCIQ
UniProt Q99941: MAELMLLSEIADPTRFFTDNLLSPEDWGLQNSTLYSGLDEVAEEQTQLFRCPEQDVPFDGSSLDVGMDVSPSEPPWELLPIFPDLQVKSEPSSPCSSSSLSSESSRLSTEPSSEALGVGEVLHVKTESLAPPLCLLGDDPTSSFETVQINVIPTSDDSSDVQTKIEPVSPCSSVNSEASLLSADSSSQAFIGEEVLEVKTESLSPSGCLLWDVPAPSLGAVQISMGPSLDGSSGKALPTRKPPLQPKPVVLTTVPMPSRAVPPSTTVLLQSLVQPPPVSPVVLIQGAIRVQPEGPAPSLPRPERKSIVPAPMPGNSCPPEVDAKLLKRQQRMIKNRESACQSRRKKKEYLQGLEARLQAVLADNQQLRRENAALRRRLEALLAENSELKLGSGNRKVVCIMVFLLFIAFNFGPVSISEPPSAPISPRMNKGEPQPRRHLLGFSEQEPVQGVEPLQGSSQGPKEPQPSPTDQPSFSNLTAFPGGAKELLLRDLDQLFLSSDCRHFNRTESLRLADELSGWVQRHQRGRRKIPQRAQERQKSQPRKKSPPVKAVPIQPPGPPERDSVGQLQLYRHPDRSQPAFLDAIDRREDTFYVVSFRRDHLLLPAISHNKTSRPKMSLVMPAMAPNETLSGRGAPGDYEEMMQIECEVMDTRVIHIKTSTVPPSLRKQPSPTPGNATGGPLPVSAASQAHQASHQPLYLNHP
UniProt Q96QE3: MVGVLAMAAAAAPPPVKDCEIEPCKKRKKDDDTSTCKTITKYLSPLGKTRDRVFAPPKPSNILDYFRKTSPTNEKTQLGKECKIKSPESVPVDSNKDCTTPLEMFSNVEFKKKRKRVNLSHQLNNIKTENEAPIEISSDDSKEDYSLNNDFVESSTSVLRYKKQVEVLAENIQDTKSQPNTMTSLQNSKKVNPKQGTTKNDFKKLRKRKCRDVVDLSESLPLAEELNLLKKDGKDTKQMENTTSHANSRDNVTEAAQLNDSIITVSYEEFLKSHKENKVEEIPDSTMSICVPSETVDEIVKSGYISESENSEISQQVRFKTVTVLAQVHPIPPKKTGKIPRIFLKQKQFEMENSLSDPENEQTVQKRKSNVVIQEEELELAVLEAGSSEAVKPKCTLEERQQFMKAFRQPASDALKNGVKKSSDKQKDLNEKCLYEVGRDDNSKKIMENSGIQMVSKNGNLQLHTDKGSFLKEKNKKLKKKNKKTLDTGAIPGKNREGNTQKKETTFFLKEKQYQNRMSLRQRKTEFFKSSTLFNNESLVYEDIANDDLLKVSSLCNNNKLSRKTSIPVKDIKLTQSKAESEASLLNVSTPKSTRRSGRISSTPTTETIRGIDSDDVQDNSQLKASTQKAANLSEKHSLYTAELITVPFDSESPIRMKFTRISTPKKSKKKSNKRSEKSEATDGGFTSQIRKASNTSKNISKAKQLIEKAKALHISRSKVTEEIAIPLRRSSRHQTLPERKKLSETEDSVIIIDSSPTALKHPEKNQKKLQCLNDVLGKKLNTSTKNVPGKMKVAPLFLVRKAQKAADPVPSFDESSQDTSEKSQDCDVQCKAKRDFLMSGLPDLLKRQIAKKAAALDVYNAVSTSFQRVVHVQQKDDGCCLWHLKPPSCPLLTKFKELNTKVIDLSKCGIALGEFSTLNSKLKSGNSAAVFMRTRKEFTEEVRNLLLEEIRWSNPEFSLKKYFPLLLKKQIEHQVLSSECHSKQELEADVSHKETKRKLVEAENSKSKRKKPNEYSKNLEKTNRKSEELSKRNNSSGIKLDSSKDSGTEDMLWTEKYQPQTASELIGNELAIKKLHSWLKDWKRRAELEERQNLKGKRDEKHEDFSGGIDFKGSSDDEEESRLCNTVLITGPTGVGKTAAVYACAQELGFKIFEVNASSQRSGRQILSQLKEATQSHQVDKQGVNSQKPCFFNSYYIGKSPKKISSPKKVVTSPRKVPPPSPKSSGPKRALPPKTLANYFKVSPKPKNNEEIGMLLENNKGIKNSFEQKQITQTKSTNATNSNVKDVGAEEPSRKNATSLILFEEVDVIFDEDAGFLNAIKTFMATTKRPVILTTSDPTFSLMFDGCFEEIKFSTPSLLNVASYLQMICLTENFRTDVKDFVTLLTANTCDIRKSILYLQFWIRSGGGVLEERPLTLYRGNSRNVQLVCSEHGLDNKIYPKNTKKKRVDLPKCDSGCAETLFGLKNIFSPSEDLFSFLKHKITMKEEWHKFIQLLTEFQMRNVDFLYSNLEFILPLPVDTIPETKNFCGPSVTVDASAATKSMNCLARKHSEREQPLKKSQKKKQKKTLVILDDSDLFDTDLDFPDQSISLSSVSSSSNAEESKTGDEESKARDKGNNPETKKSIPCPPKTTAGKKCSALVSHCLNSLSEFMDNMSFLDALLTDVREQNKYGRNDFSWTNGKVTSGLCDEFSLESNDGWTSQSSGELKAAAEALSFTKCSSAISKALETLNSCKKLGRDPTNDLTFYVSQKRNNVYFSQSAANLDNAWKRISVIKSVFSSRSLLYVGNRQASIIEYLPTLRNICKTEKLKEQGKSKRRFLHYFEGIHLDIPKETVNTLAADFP
UniProt Q2TB18: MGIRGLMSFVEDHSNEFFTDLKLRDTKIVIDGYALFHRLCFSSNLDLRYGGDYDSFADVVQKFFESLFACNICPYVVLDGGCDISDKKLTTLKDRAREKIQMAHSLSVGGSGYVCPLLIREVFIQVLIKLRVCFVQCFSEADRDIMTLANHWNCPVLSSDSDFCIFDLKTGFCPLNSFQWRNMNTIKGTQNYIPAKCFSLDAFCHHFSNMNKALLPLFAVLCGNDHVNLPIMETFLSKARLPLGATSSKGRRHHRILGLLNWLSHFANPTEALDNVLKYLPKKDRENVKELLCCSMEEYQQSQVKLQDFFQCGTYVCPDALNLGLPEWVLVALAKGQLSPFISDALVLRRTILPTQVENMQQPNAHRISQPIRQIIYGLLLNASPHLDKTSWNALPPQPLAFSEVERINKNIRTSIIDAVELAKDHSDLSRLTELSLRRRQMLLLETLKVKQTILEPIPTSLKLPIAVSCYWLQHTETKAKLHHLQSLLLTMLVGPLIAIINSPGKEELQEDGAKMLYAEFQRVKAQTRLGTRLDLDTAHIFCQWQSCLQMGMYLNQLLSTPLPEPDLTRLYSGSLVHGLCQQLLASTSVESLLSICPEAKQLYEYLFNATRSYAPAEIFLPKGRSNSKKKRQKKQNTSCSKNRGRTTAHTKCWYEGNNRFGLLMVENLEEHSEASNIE
UniProt P0C7T5: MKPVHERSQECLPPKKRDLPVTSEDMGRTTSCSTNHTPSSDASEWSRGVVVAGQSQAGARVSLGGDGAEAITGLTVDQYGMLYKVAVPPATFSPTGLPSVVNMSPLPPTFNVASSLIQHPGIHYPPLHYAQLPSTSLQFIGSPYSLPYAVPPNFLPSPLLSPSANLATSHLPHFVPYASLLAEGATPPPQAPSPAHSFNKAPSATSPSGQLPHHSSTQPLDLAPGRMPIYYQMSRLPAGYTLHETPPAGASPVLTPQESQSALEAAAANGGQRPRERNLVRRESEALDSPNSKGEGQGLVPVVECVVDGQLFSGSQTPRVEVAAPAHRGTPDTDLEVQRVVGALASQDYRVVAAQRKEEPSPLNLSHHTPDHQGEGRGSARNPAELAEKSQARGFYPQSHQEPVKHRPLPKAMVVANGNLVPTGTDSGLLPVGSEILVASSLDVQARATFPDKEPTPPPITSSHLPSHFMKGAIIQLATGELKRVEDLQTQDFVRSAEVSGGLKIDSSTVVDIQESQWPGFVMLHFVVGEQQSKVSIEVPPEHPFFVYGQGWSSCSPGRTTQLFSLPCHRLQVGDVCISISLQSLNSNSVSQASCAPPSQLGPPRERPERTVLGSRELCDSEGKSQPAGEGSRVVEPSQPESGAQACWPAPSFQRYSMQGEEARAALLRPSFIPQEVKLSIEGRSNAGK
UniProt Q5T6C5: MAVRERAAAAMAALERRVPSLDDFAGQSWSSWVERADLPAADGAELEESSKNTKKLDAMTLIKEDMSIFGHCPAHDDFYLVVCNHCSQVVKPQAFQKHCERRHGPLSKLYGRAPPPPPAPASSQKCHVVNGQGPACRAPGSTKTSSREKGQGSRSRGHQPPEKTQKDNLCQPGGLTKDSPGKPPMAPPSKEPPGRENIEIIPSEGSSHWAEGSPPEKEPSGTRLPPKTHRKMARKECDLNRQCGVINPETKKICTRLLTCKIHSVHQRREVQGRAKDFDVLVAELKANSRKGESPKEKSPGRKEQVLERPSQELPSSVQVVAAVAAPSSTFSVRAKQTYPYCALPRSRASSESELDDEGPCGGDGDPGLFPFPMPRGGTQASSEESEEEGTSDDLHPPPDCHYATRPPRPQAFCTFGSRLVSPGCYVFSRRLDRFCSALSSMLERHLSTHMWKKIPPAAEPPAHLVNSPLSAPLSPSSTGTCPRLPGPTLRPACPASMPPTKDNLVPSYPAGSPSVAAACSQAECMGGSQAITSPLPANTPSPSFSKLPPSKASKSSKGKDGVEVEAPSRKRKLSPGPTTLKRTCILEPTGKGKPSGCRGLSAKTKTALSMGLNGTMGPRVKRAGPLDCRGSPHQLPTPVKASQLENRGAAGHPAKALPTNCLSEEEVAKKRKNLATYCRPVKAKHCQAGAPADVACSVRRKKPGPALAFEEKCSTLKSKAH
UniProt Q9NWL6: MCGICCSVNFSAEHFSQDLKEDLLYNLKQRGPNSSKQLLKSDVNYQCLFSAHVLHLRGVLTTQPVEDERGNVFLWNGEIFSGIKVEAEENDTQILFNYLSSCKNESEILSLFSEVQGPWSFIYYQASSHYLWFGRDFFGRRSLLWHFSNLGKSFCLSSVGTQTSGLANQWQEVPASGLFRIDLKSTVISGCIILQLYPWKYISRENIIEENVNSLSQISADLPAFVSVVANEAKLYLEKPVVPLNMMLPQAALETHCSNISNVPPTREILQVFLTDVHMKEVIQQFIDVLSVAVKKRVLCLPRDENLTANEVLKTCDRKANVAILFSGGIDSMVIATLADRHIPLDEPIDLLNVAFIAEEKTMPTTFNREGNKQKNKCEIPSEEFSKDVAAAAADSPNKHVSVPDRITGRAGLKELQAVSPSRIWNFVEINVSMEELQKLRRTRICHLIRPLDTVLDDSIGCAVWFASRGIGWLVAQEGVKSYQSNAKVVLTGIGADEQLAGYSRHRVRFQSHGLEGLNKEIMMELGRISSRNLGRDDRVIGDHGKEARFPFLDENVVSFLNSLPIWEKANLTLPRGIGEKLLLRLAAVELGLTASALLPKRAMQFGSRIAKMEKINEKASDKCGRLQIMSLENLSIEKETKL
UniProt O95260: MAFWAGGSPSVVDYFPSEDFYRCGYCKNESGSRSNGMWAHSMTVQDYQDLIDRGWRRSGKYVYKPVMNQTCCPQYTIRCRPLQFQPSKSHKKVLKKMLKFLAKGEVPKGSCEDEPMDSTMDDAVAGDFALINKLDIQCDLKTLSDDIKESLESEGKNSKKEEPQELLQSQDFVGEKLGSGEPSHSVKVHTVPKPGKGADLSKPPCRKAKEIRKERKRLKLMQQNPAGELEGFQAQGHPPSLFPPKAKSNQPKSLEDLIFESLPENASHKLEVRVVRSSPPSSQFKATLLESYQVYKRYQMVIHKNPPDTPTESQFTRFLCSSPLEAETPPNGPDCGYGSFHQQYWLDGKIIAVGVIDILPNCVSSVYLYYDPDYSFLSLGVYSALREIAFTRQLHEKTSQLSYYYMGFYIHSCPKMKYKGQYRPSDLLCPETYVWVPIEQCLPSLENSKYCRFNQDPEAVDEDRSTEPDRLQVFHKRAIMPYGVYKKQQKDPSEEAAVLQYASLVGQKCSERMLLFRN
UniProt Q96DX5: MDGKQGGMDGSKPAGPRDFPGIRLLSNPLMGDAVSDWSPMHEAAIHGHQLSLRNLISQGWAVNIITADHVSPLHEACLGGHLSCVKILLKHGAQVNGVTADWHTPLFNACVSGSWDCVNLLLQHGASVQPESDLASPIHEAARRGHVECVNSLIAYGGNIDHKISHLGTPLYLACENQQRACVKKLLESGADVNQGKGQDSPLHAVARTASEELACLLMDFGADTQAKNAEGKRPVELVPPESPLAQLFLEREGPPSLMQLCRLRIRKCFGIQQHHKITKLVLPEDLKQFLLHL

Experiments:
Test in all cases: log2 fold change, soluble protein after heating vs DMSO (PISA); higher = thermal stabilisation; K562 lysate, 10 uM; active = over 0.2 and 3.5 SD of the protein, either way, in both replicates (recomputed)
[1] = compound: CC(=O)c1cnc2ccc(-c3cc(Cl)c(O)c(Cl)c3)nc2c1N[C@H]1CC[C@H](CN(C)C)CC1
How it was run: (§1)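 Thermal stability, expressed as log-two fold change relative to solvent controls, is given from duplicates. Crude K562 extract in PBS pH 7.4 with 1 mM MgCl2, at 1 mg/mL protein, was treated with 10 μM compound for 30 min and heated in aliquots for 3 min across 48°C-58°C. After pooling, adjustment to 0.5% NP-40 at 4°C and centrifugation at 21,000xg for 90 min, supernatant protein was measured by TMTpro 16plex LC-MS/MS with channel sums equalised.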

[2] = compound: CC1=C(C2=C(C=C1)C(=O)C3=CC=CC=C3N2CCCN)C
How it was run: as §1

[3] = compound: CC1=C(C=C(C=C1)NC(=O)C2=CC(=CC=C2)C(C)(C)C#N)NC3=CC4=C(C=C3)N=CN(C4=O)C
How it was run: as §1

[4] = compound: CC1=CC=C(C=C1)SC2=C3C=C(SC3=CN=C2)C(=O)N
How it was run: as §1

[5] = compound: C#Cc1cccc(Nc2ncnc3cc(OCCOC)c(OCCOC)cc23)c1 [erlotinib]
How it was run: as §1

[6] = compound: C1=CC(=CC=C1C2=NC3=C(N2)C=C(C=C3)C(=O)N)OC4=CC=C(C=C4)Cl
How it was run: as §1

[7] = compound: C1=CC2=NC=CN=C2C=C1/C=C/3\C(=O)NC(=O)S3
How it was run: as §1

[8] = compound: C1=CC=C(C=C1)C2=NC(=C(N2)C3=CC=NC=C3)C4=CC(=C(C=C4)Cl)O
How it was run: as §1

[9] = compound: C1COCCN1CCN2C3=CC=CC=C3N=C2NC(=O)C4=CC(=CC=C4)[N+](=O)[O-] [IRAK-1-4 Inhibitor I]
How it was run: as §1

[10] = compound: C=CC(=O)N1CCC[C@@H](n2nc(-c3ccc(Oc4ccccc4)cc3)c3c(N)ncnc32)C1 [ibrutinib]
How it was run: as §1

[11] = compound: CC(C)(C)Cn1c(N)nc2ccc(-c3[nH]c(C(C)(C)C)nc3-c3ccc(F)cc3)nc21 [ralimetinib]
How it was run: as §1

[12] = compound: CC(C)(O)CC(=O)NCCn1ccc2ncnc(Nc3ccc(Oc4cccc(C(F)(F)F)c4)c(Cl)c3)c21
How it was run: as §1

[13] = compound: CC(C)C1=C2N=C(C=C(N2N=C1)NCC3=CC=CC=C3)NCCCCCCN
How it was run: as §1

[14] = compound: CC1=C(C(CC(=O)N1)C2=CC=C(C=C2)C(F)(F)F)C(=O)NC3=C(C=C4C(=C3)C=NN4)F
How it was run: as §1

[15] = compound: CC1=C(C=C(C=C1)NC(=O)C2=CC(=CC=C2)N(C)C)NC(=O)C3=CC=C(C=C3)O
How it was run: as §1

[16] = compound: C1CCN(C1)C(=O)NC2=CC=CC(=C2)NC3=NC=C(C(=N3)NCCC4=CN=CN4)Br
How it was run: as §1

[17] = compound: C1CN(CCC1(CC2=CC=C(C=C2)Cl)N)C3=NC=NC4=C3C=CN4
How it was run: as §1

[18] = compound: C/C(=N\NC(=O)C1=CC(=CC=C1)S(=O)(=O)N2CCOCC2)/C3=C(C=CC(=C3)Cl)O
How it was run: as §1

[19] = compound: C1=CC2=C(C=CC(=C2)/C=C\3/C(=O)NC(=NCC4=CC=CS4)S3)N=C1
How it was run: as §1

[20] = compound: C1=CC=C2C(=C1)C3=NNC4=CC=CC(=C43)C2=O
How it was run: as §1

Measured: log2 fold change

ASB16 (UniProt Q96NS5)
inactive: [1] -0.487 | [2] -0.097 | [3] 0.282 | [4] -0.16

ATG2A (UniProt Q2TAZ0)
inactive: [5] 0.169 | [6] 0.087 | [7] -0.097 | [8] -0.01 | [9] 0.097 | [10] -0.106 | [1] -0.303 | [11] -0.051 | [12] -0.092 | [13] -0.365 | [14] 0.137 | [15] 0.08 | [4] 0.128

ATP5F1A (UniProt K7ENJ4)
inactive: [5] 0.161 | [6] 0.029 | [8] 0.145 | [9] 0.044 | [1] 0.059 | [11] 0.057 | [12] 0.159 | [13] 0.07 | [14] -0.341 | [15] -0.081 | [4] -0.199

ATF6B (UniProt Q99941)
inactive: [3] 0.222

ATP5F1B (UniProt H0YI37)
inactive: [5] 0.44 | [6] 0.43 | [7] -0.17 | [8] 0.015 | [9] 0.24 | [10] -0.178 | [1] -0.088 | [11] -0.548 | [12] -0.358 | [13] -0.058 | [14] -0.134 | [2] -0.343 | [3] 0.973 | [15] -0.327 | [4] -0.054

ATAD5 (UniProt Q96QE3)
inactive: [5] -0.071 | [6] -0.012 | [16] 0.028 | [17] -0.062 | [13] 0.106 | [14] -0.016

ASTE1 (UniProt Q2TB18)
inactive: [1] 0.025 | [3] 0.033 | [4] -0.159

ATXN1L (UniProt P0C7T5)
inactive: [18] 0.101 | [19] -0.016 | [7] 0.02 | [8] 0.001 | [20] -0.038 | [16] 0.03 | [17] -0.143 | [9] 0.017 | [10] 0.031 | [11] 0.018 | [12] -0.044 | [14] -0.109 | [3] -0.025 | [15] -0.015

ATP1B1 (UniProt P05026)
inactive: [5] -0.01 | [6] 0.057 | [7] -0.019 | [8] -0.014 | [9] 0.088 | [10] 0.025 | [1] 0.086 | [11] 0.034 | [12] -0.037 | [13] -0.043 | [14] 0.124 | [2] 0.001 | [3] -0.006 | [15] -0.005 | [4] -0.006

ATXN7L2 (UniProt Q5T6C5)
inactive: [18] 0.035 | [19] -0.271 | [20] -0.044

ASNSD1 (UniProt Q9NWL6)
inactive: [5] 0.053 | [6] -0.028 | [7] -0.004 | [16] 0.024 | [17] 0.025 | [10] -0.023 | [13] -0.056 | [14] -0.01

ATE1 (UniProt O95260)
inactive: [7] 0.005 | [10] 0.081 | [1] -0.025 | [3] -0.101 | [4] -0.022

2 consecutive entries already listed, quoted:
ATP1B1 (UniProt P05026)
inactive: [5] -0.01 | [6] 0.057 | [7] -0.019 | [8] -0.014 | [9] 0.088 | [10] 0.025 | [1] 0.086 | [11] 0.034 | [12] -0.037 | [13] -0.043 | [14] 0.124 | [2] 0.001 | [3] -0.006 | [15] -0.005 | [4] -0.006

ATXN7L2 (UniProt Q5T6C5)
inactive: [18] 0.035 | [19] -0.271 | [20] -0.044

(listing goes on)

ASB9 (UniProt Q96DX5)
inactive: [5] 0.296 | [6] -0.344 | [1] -0.049 | [13] -0.19 | [4] 0.001
